Experimental data: paper PMC11865978 (ACS Omega, 2025)
Plain letter strings leave the end groups untold.

Assay: general procedure: Fmoc solid-phase peptide synthesis; TentaGel S Rink amide resin (Rapp Polymere, loading 0.22 mmol/g); HATU/DIPEA
Details: whole synthesis, 220 nm

Row | Sequence | final HPLC purity
1 | RRRRRHQWW | 98%
2 | RRRRRCAWW | 98%
3 | RRRRRMQWW | 97%
4 | RRRRRAQWW | 98%
5 | RRRRRCQWW | >99%
6 | RRRRRWWQC | 96%
7 | RRRRRCQAW | 98%
8 | RRRRRQWW | >99%
9 | RRRRRCQWA | 95%
10 | RRRRRCQW | 97%
11 | RRRRRFQWW | >99%
